No constants are given. Whether binding was seen depends on the method and setting. In cells and extracts the contact can be indirect. For some assays here: A result given as binding can be weak or reduced; the word gives no strength. Tags and fused reporters may be left off the sequences shown.

The target of assay [1] is T1, GST-AMSH2 (Arabidopsis) (Arabidopsis thaliana) (UniProt Q6NKP9).
T1 sequence: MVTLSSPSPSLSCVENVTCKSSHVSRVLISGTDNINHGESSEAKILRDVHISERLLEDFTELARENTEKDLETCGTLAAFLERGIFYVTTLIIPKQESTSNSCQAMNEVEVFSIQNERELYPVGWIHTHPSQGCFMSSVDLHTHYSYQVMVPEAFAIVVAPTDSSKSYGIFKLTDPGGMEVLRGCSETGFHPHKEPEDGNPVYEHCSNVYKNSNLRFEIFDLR
Kind of assay: pull-down.

Assay [2] addresses T2, GST-AMSH3 (Arabidopsis) (Arabidopsis thaliana) (UniProt Q5PNU3).
T2 sequence: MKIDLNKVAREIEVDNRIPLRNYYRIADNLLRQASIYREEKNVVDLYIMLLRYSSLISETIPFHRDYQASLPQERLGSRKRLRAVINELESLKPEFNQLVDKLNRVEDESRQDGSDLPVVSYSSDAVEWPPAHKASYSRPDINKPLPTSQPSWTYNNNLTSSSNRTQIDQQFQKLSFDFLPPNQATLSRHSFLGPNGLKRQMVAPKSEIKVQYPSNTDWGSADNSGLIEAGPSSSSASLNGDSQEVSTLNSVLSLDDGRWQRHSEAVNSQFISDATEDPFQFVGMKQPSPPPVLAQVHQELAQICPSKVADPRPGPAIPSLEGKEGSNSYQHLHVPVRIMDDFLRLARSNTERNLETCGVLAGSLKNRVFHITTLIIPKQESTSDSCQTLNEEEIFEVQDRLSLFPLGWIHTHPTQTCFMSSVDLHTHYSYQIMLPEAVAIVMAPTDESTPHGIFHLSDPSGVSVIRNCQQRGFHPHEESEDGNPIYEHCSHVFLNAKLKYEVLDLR
As to the kind of experiment: pull-down.

Assay [3] addresses T3, GST-AMSH1 (Arabidopsis) (Arabidopsis thaliana) (UniProt Q8VYB5).
T3 sequence: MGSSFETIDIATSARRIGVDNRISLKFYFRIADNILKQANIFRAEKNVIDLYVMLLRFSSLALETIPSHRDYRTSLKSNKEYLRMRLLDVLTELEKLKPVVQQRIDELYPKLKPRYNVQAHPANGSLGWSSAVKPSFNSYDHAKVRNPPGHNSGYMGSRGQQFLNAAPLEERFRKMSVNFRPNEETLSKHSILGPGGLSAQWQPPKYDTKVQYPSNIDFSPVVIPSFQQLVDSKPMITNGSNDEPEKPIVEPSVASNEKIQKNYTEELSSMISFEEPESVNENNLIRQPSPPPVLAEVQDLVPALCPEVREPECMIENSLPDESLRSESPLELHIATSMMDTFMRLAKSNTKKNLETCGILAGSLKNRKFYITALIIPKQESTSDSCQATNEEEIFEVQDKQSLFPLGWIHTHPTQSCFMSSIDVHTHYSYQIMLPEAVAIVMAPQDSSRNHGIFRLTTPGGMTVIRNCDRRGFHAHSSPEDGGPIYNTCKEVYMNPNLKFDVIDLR
As to the kind of experiment: pull-down.

In assay [4] the target is T4, eGFP-AMSH2 (Arabidopsis AMSH2) (Arabidopsis thaliana) (UniProt Q6NKP9).
T4 sequence: T1 sequence
As to the kind of experiment: co-IP.

Assay [5] has as its target T5, eGFP-AMSH3 (Arabidopsis AMSH3) (Arabidopsis thaliana) (UniProt Q5PNU3).
T5 sequence: T2 sequence
As to the kind of experiment: co-IP.

For His-Mp10 (Myzus persicae), the binding result in assay [1], in assay [2] and in assay [3] was “binds” throughout.

As to Flag-Mp10 (Myzus persicae), the binding entry was “binds” in assay [4] and “no binding” in assay [5].

For the origin of these results see paper doi:10.1101/2024.11.15.622802.
